The source of these data is PMC7819943, “Rice protein-binding microarrays: a tool to detect cis-acting elements near promoter regions in rice”.

By UniProt entry, the sequences of proteins in these tests, tags left out.
UniProt Q0JBA9, entry or part of it: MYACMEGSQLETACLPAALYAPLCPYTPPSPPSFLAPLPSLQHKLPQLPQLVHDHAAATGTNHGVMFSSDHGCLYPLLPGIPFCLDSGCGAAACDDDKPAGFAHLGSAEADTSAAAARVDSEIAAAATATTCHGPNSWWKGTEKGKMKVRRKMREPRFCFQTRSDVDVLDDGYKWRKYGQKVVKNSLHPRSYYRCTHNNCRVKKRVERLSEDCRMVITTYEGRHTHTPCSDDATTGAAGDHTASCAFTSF

The other results are listed elsewhere or left out.

The target of this experiment is OsWRKY34 (Oryza sativa, UniProt Q0JBA9 1-250). The experiment is described as follows: protein-binding microarray (RPBM); PBS, 2% BSA, 51.3 ng/ul salmon testes DNA, 50 uM zinc acetate, 200 nM TF, 25 C, 1 h; high values mean tight binding. As to conditions: protein: recombinant; tags: N-terminal polyhistidine and DsRed monomer fusion (pET32a); label: CyDye5-dUTP incorporated in the synthesized complementary strand; 3' TTTTT single-stranded linker to array surface; dsDNA, one strand shown. Put shortly:
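An Axon 4000B scanner gave the binding signal as per-feature fluorescence intensity in arbitrary units. This followed washing of a custom Agilent array that had been incubated for 1 h at 25 °C with 200 nM protein in PBS, 2% BSA, salmon testes DNA and 50 µM zinc acetate. The proteins were transcription factors fused at the N-terminus to polyhistidine and DsRed, expressed in E. coli BL21-CodonPlus and purified on Ni–NTA.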
Take “GGTTTTCATCATCTGGTATCTCAATGTTATCATTAATTTACGGAGTCACCTAGTGCAG”: the binding signal is 10600 fluorescence intensity (a.u.).
As for “AGCTCCATCCGCAACCGCAAATGACGCTTCCCAGCCGCGACGGAGTCACCTAGTGCAG”, the binding signal is 8490 fluorescence intensity (a.u.).
For “TCCTTATCCTCTTCTCCTTTCTTCTTCTGCCTTGACCCTCCGGAGTCACCTAGTGCAG” the value was 11300 fluorescence intensity (a.u.); for “TTCACTCCAAACTACAACAATTCAATTCTGCCATTTGTTTCGGAGTCACCTAGTGCAG”, 8630 fluorescence intensity (a.u.).
For “TCTTCGTTGCCCCTTGTTTTCACCATGTCACTGTTGAACACGGAGTCACCTAGTGCAG” the value was 8860 fluorescence intensity (a.u.); for “ACCACGTAAAATATCCAAACTGCCGTGTCCATCGTTTTCCCGGAGTCACCTAGTGCAG”, 8330 fluorescence intensity (a.u.); for “GACACCCGCTGCTCTTCTCTCTCTTCCTTTATCTCTTTAACGGAGTCACCTAGTGCAG”, 10300 fluorescence intensity (a.u.).
For “CTTTTCCCCGCGGCCATCCCCGTCGCCCCACCGCCGCCGCCGGAGTCACCTAGTGCAG” the value was 11200 fluorescence intensity (a.u.).
Take “AAGATCGTATTACCCTTCGCCTTCGCCTCGTCGGCCATTACGGAGTCACCTAGTGCAG”: the binding signal was 9560 fluorescence intensity (a.u.).
As for “AAGCTAGTCAAACCGTTGACTACCACTGTCTTTGTTGCGCCGGAGTCACCTAGTGCAG”, the binding signal is 16800 fluorescence intensity (a.u.).
For “TTGCCACACTTGTGATTAACTATTTCTTGGCCATACTTTTCGGAGTCACCTAGTGCAG” the value was 10100 fluorescence intensity (a.u.).
“TTTTTGGTTACTTGTCACAATTGTTTCTTAGCTTCATGGCCGGAGTCACCTAGTGCAG”: the binding signal was 11100 fluorescence intensity (a.u.).
Take “ATATCCAATCCTGCATATCATCATCGTCTTTGCGGGAAATCGGAGTCACCTAGTGCAG”: the binding signal is 8830 fluorescence intensity (a.u.).
For “TCACCGATTCACTCTCCTAGTCCTAGAGTCCTGGTCCATCCGGAGTCACCTAGTGCAG” the value was 8440 fluorescence intensity (a.u.).
In the case of “TTCTCGATCGTTTCTTTCCCGCAATATTCCTCATCCTTGTCGGAGTCACCTAGTGCAG” it was 11900 fluorescence intensity (a.u.).
In the case of “TCTTCATGCGACCATTACTCGCCCGTTGTCCGATAGCGCGCGGAGTCACCTAGTGCAG” it was 8590 fluorescence intensity (a.u.); in that of “CTCCTCGCCACCGTTCTCCGTCCATCCACCGAGTCACCGACGGAGTCACCTAGTGCAG”, 11200 fluorescence intensity (a.u.).
In the case of “AGCTAAGTGCCATATTGCACGTACTCGTTGTCTGTCCGATCGGAGTCACCTAGTGCAG”, the binding signal was 8520 fluorescence intensity (a.u.).
Consider “TTCCGCTCCCACCACAGTGTGCTGCTCTCGTCAGTTGCCACGGAGTCACCTAGTGCAG”, for which the binding signal is 10300 fluorescence intensity (a.u.).
In the case of “ACCCCAAGTGTTCACCTCTCTTCTGCTTCATCTCGATCTCCGGAGTCACCTAGTGCAG” it was 11000 fluorescence intensity (a.u.).
In the case of “TGGCCCGGTACCCGCACCTCGCCGGGAGGTTCGACGTCGACGGAGTCACCTAGTGCAG” it was 9640 fluorescence intensity (a.u.); in that of “GGCGATCCGGCTTAACTACTTTGTTTGTTTCTCTGTGCAACGGAGTCACCTAGTGCAG”, 8480 fluorescence intensity (a.u.).
As to “CTTAAATTTTCTTTAGATCTTTTGCTTTATCTTGTTATAACGGAGTCACCTAGTGCAG”, the binding signal was 8630 fluorescence intensity (a.u.).
In the case of “CTAAAAGTCAATCCACGCCACCATCGATCTCTCTATCCAACGGAGTCACCTAGTGCAG” it was 9440 fluorescence intensity (a.u.).
As for “GACGTGCGCAGTGACGCAGCATCCCTCGTCTCCGCTATTTCGGAGTCACCTAGTGCAG”, the binding signal was 8160 fluorescence intensity (a.u.).
Consider “GGGATCCTGACGATTTTCGCCGCCATCAGTACGTCCGGATCGGAGTCACCTAGTGCAG”, for which the binding signal is 8940 fluorescence intensity (a.u.).
For “ACCGCCCCGCACCCACCCACCTCTGCCTAGATCCGTCTCCCGGAGTCACCTAGTGCAG” the value was 8730 fluorescence intensity (a.u.); for “GCATTCGTCTCGCTGCCCACCTACTTTTCAAACGCGGATGCGGAGTCACCTAGTGCAG”, 11700 fluorescence intensity (a.u.).
In the case of “CTCGGCCATCGATTTCCTCACCCTCTGCCATCGCCTTAAGCGGAGTCACCTAGTGCAG” it was 11300 fluorescence intensity (a.u.); in that of “CGCCGCTGCCGTTGACCGTGTTCCGGCACTTCTTCACGACCGGAGTCACCTAGTGCAG”, 17400 fluorescence intensity (a.u.).
In the case of “ATTCACCATTTTACCGTTATACCTGGCCACTGTTATATATCGGAGTCACCTAGTGCAG” it was 11800 fluorescence intensity (a.u.).
“ATGCACTAGCCAAGTTGTTGTACCTATATACTCATTTTTCCGGAGTCACCTAGTGCAG”: the binding signal was 11400 fluorescence intensity (a.u.).
Regarding “CGCACTCTACCTAGACCACCACCACCACCAGTCCACCACACGGAGTCACCTAGTGCAG”, the binding signal is 11500 fluorescence intensity (a.u.).
With “TCAGTTTCTCTTTTTTCTTGTTCGAGTCAATCGGGCGGATCGGAGTCACCTAGTGCAG”, the binding signal was 8960 fluorescence intensity (a.u.).
Regarding “TCCTCGTCTACATTGCGGTCTCCGGCGGCGGCGGCGGGGTCGGAGTCACCTAGTGCAG”, the binding signal is 10800 fluorescence intensity (a.u.).
In the case of “GGGAAAGTGGTTGGCGGATATTCTTGTTTTCTTTTTTTGTCGGAGTCACCTAGTGCAG” it was 12500 fluorescence intensity (a.u.); in that of “GCGCGCGCTTGTAGCCATCGGAGGAGGAGGAGGGAGGGGACGGAGTCACCTAGTGCAG”, 8230 fluorescence intensity (a.u.); in that of “TTTGATTCTCTACCTTTTGTTTTCTGTTTATATTTCAATTCGGAGTCACCTAGTGCAG”, 12400 fluorescence intensity (a.u.).
In the case of “CCTTGGTTTCCGTGTCATGTTTGACCATTCGTCTTATTTGCGGAGTCACCTAGTGCAG”, the binding signal was 12400 fluorescence intensity (a.u.).
Turning to “TCTTATATTATACATCTCACTGTCTCAGTGTCTTGCCCTTCGGAGTCACCTAGTGCAG”, the binding signal is 8370 fluorescence intensity (a.u.).
In the case of “GTGGTTGTGTGCAAGCTGCCAGCGCTTTTTGTTTTCCCTCCGGAGTCACCTAGTGCAG” it was 9430 fluorescence intensity (a.u.).
As to “AATTTGTCTGCTTCCAGAGTTCCAGTTGCCTTGCCGCATGCGGAGTCACCTAGTGCAG”, the binding signal is 11500 fluorescence intensity (a.u.).
Consider “GACTCCCGTCTCCTCGCCCGGCCGGCGGCCGCCCGTCGCCCGGAGTCACCTAGTGCAG”, for which the binding signal was 9560 fluorescence intensity (a.u.).
Take “GCTTACGTTATAGGTATTTTTCCACGGTATGAGACTAAAACGGAGTCACCTAGTGCAG”: the binding signal was 9520 fluorescence intensity (a.u.).
For “ATAAGATGTTTTGATTGTTATAAGTTTGACCAAGTTTATACGGAGTCACCTAGTGCAG” the value was 8780 fluorescence intensity (a.u.).
Regarding “TGCGTCTCTGTCTCTCTCCTGGCGTTGGCTTGGCTCTAACCGGAGTCACCTAGTGCAG”, the binding signal is 9360 fluorescence intensity (a.u.).
For “AAGATGATTTCCGTCCGTTTCCCGTTTTCACCCCTAGTTGCGGAGTCACCTAGTGCAG” the value was 9520 fluorescence intensity (a.u.); for “CCGCCTCGCCAACCTCCCCACGCCGGCCACCGCCGCACGGCGGAGTCACCTAGTGCAG”, 8640 fluorescence intensity (a.u.); for “AATTAATTGTGTATTATAAGGTTTGGTCCCATTTTCTTTTCGGAGTCACCTAGTGCAG”, 8110 fluorescence intensity (a.u.).
In the case of “AGTTTAAAACCCACCCGTCCCGTGCCCGTGTCCGTGTCTCCGGAGTCACCTAGTGCAG” it was 12700 fluorescence intensity (a.u.); in that of “GTCTCGCTCAGCCAGCCGCTACGCCCTGCCCGTCGCCTGCCGGAGTCACCTAGTGCAG”, 10100 fluorescence intensity (a.u.).
For “TTTCGCCATACCTGTTACCATGTTAACATATCTTACCTTCCGGAGTCACCTAGTGCAG” the value was 11800 fluorescence intensity (a.u.); for “GGCAGTGACGCAAGAAAGGGGTCGGGGACGGGTCAACAAGCGGAGTCACCTAGTGCAG”, 10800 fluorescence intensity (a.u.); for “AACTGGCTATGCGGCTTTCCTTCGCCCTTACCCTGTCTCTCGGAGTCACCTAGTGCAG”, 8900 fluorescence intensity (a.u.).
